Measured values from PMC3794912.
No constants are given. Whether binding was seen depends on the method and setting. Binding seen in cells or lysates may run through a third protein. Some binding calls cover weakened binding; strength is not graded here.

Amino acid sequences for entries named in this document (tags omitted).
UniProt P11632: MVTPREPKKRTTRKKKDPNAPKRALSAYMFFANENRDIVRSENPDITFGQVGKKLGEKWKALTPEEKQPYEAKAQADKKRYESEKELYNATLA
UniProt P43588: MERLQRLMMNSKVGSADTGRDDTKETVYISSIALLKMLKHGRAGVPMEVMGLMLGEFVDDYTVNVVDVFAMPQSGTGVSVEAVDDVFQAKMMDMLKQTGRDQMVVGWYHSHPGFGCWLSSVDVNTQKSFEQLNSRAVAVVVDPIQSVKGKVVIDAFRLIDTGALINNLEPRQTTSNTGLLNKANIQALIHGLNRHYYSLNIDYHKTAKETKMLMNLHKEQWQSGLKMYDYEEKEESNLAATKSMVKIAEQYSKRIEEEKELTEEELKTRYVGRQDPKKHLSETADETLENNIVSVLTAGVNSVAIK
UniProt P02294: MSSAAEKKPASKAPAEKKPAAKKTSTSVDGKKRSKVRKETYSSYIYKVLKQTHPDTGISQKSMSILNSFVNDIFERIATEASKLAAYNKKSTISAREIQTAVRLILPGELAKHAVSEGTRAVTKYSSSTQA

Legend:
[1] = target: Nhp6a::F[1,2] (S. cerevisiae) (UniProt P11632); assay: split reporter; mDHFR protein-fragment complementation assay (PCA) in living S. cerevisiae; fragments F[1,2] and F[3] fused at the C-termini; read-out growth or colony size on medium with 200 µg/ml methotrexate (serial dilutions, robotic pinning, genome-wide rPCA screens)
[2] = target: Rpn11::F[3] (S. cerevisiae) (UniProt P43588); assay: as above

binding [1] | binding [2] | Molecule
binds |  | Htb2::F[1,2] (from UniProt P02294 1-131)
 | binds | Rpn5::F[1,2] (protein, UniProt Q12250 1-445) MSRDAPIKADKDYSQILKEEFPKIDSLAQNDCNSALDQLLVLEKKTRQASDLASSKEVLAKIVDLLASRNKWDDLNEQLTLLSKKHGQLKLSIQYMIQKVMEYLKSSKSLDLNTRISVIETIRVVTENKIFVEVERARVTKDLVEIKKEEGKIDEAADILCELQVETYGSMEMSEKIQFILEQMELSILKGDYSQATVLSRKILKKTFKNPKYESLKLEYYNLLVKISLHKREYLEVAQYLQEIYQTDAIKSDEAKWKPVLSHIVYFLVLSPYGNLQNDLIHKIQNDNNLKKLESQESLVKLFTTNELMRWPIVQKTYEPVLNEDDLAFGGEANKHHWEDLQKRVIEHNLRVISEYYSRITLLRLNELLDLTESQTETYISDLVNQGIIYAKVNRPAKIVNFEKPKNSSQLLNEWSHNVDELLEHIETIGHLITKEEIMHGLQAK
